Patent US8569356B2, “Cyclin dependent kinase inhibitors” (University of Florida Research Foundation, Inc., priority 2005, dated 2013)
At least one structure is not confirmed: it was looked up by name or label, or the drawing left a doubt.

Amino acid sequences for entries named in this document (tags omitted). A change or cut given only in a name is not applied to a line headed by its entry.
UniProt P46527, whole entry: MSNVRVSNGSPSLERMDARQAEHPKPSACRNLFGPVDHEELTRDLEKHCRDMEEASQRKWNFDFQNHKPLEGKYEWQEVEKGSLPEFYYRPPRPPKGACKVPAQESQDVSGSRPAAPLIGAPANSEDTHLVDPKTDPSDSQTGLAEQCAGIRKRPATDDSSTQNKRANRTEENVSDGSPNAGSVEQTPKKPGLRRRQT
UniProt P06493, whole entry: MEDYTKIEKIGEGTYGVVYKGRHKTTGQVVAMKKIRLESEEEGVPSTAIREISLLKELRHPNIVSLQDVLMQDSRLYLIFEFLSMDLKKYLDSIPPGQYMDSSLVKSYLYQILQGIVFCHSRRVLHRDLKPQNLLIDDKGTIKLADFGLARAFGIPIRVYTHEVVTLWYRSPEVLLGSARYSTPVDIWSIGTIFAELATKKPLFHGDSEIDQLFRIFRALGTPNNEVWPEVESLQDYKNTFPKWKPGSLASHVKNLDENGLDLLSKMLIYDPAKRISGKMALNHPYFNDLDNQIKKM
UniProt P11802: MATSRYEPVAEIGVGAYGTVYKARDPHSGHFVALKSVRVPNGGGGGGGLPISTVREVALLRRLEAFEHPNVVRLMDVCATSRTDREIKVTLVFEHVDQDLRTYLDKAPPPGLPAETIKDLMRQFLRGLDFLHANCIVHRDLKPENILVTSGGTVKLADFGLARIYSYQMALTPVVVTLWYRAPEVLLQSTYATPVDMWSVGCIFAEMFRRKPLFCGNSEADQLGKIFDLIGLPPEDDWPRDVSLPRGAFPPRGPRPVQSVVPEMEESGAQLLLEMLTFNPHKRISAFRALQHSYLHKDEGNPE

Columns and labels:
NMuMG cells = assay: 3H-thymidine incorporation assay, NMuMG; format: cell-based, mouse; conditions: 100 μM, 24 hours
Description: (§1) FIG. 2. In silico molecular docking and preliminary analysis of potential Cyclin/Cdk2 inhibitors. (A) Cyclin A/Cdk2/p27 complex with spheres docked into the binding pocket (Pocket #1) and the pocket enclosed in a scoring grid (rectangular box). (B) Binding cleft shown filled with spheres, the top 10 hits superimposed into the binding pocket (All Hits), and the predicted mode of binding of individual hits in the Cyclin A/Cdk2/p27 pocket (Hits #3-10). (C) NMuMG (black bars) or DU145 cells (open bars) were treated for 24 hours with 100 μM of the indicated compounds and ^3H-thymidine incorporation was measured to assess rates of cell proliferation. Roscovitine is a known Cdk inhibitor and was included as a positive control. DMSO (0.1%) was included as a vehicle control. (D) Morphological change induced by 100 μM Hit #10 in NMuMG and DU145 cells after treatment for 24 hours.
(§2) Labeled thymidine (^3H-thymidine) incorporation assays were used to screen compounds at a concentration of 100 μM using mouse mammary epithelial cells and the human prostate cancer cell line DU145.
Seven of the molecules identified in Example 1 as having the top estimated binding energies (Hits/Compounds 3, 4, 6, 7, 8, 9, and 10) were obtained and tested for their ability to induce cell cycle arrest of mouse mammary NMuMG and DU145 human prostatic carcinoma cell lines in ^3H-thymidine incorporation assays (FIG. 2C). […]

DU145 cells = assay: 3H-thymidine incorporation assay, DU145; format: cell-based, human; conditions: 100 μM, 24 hours
Description: as §1, §2
Human prostate cancer DU145 cells were plated at 30,000 cells per well in 24-well plates and allowed to attach for 24 hours. […] The ^3H-thymidine-labeled DNA was dissolved in 0.2% NaOH, mixed with scintillation fluid, and the associated radioactivity quantitated using a scintillation counter. […]

p27/Cdk2 complex = molecular target: T1, p27/Cdk2 complex (Homo sapiens, UniProt P24941+P46527); assay: p27 binding to Cdk2, immunoprecipitation and immunoblot; format: cell-based; conditions: for p27 binding to Cdk2: DU145 cells, 100 μM, 24 h
T1 construct: DU145 cells were treated for 24 h with 100 μM of the indicated compounds; endogenous in cells; host or cells: DU145

Cdk1 = molecular target: T2, Cdk1 (Homo sapiens, UniProt P06493); assay: Immunoblot of cellular Cdk1 level in BT549 cells; format: cell-based; conditions: 24 or 48 hours, time- and dose-dependent
T2 construct: endogenous in cells; host or cells: BT549
Procedure: (§3) BT549 cells were treated with the indicated Pocket #1 compounds for the indicated intervals. Cell lysates were prepared and the amounts of Cdk1, Cdk2, and Cdk4 were determined by immunoblot. Actin staining serves as a loading control. DMSO serves as a vehicle control.
(§4) Human breast cancer BT549 cells were treated as indicated for 24 or 48 hours with either 0.2% DMSO as a vehicle control, or compounds #3, #4, and #7 at the indicated concentrations. Cell lysates were prepared, normalized for protein content, resolved by SDS-PAGE and the proteins transferred to nitrocellulose. Levels of Cdk1, Cdk2, and Cdk4 were measured using primary antibodies specific for these proteins, followed by alkaline-phosphatase-conjugated secondary antibodies and colorimetric detection using the substrate NBT/BCIP.

Cdk4 = molecular target: T3, Cdk4 (Homo sapiens, UniProt P11802); assay: Immunoblot of cellular Cdk4 level in BT549 cells; format: cell-based; conditions: 24 or 48 hours, time- and dose-dependent
T3 construct: endogenous in cells; host or cells: BT549
Procedure: as §3, §4

Cdk2 = Cdk2 (Homo sapiens, UniProt P24941); assay: Immunoblot of cellular Cdk2 level in BT549 cells; format: cell-based; design: endogenous in cells; host or cells: BT549; conditions: 24 or 48 hours, time- and dose-dependent
Procedure: as §3, §4

[1] = test system: prostate cancer cell line, Gs-α; assay: Matrigel cell invasion assay; format: cell-based; conditions: Matrigel invasion chambers, 36 h
Procedure: A cell invasion assay was performed on an aggressive prostate cancer cell line, Gs-α, to determine the effects of selected compounds that inhibit cell proliferation.
The experiment was performed in six-well Matrigel two-tier invasion chambers (Collaborative Biomedical Products, Bedford, Mass., USA), using a protocol similar to that used successfully by others (see, e.g., Chien J, Wong E, Nikes E et al., Oncogene 1999; 18: 3376-3382, incorporated herein by reference). […]
While the membranes were still wet in culture dishes, the GFP-positive cells on the entire membrane were counted under fluorescent illumination. […] The total number of cells on the entire gel was counted. The data from invasion assay were corrected for cell growth during experimental periods as follows: the experimental cells were plated at a density of 10^5 cells per well in six-well control inserts in chemoattractant medium and increase in cell number were determined after 48 h. […] The results were expressed as mean±standard deviation. […]
Significance of differences in Percent Invasion according to treatment (or transfection of Metafectene vehicle alone) were assessed by Student's t-test.

PC-3 tumor cells = assay: PC-3 tumor in mice, intratumoral injection with CD44 RNA interference; format: in vivo; conditions: combined with CD44 RNA interference
Procedure: The effect of 4-tert-Butyl-2-nitroaniline when combined with CD44 RNA interference was therefore investigated.
Seven-wk-old mice (Jackson Laboratory, Bar Harbor, Me.) were injected in the right flank with 2×10^6 PC-3 tumor cells in 500 μl liquid Matrigel. […] By 14 days after injection, a tumor mass was palpable and at 27 days, 4-tert-Butyl-2-nitroaniline and CD44 RNAi therapy commenced. Gene transfection was controlled for quantitation by injecting a constant 10 μg of vector. This approach involved mixing volume of DNA containing 10 μg of pU6BS (and subsequently pTracer) plasmid having the CD44 RNAi construct with 10 μl of Metafectene before injection into the tumor. Both Metafectene and DNA were diluted separately in 100 μl of sterile serum-free RPMI before mixing (see, e.g., Iczkowski K A, Omara-Opyene A L, and Klösel R., Molecular Biotechnology 2004; 28:97-103). The mixture was then allowed to stand for 30 minutes before injection to allow the formation of Metafectene:DNA complexes.
Intra-tumoral injection was performed five times weekly, angling the needle at different areas of the tumor during a given injection as well as varying the injection site for each injection occasion. Control animals were injected with 100 μl consisting of 50 μl empty vector/medium plus 50 μl of Metafectene.

Row | Structure (SMILES) | inhibition of cell proliferation (3H-thymidine incorporation) (NMuMG cells) | inhibition of cell proliferation (3H-thymidine incorporation) (DU145 cells) | p27 binding to Cdk2 (p27/Cdk2 complex) | cellular level of Cdk1 (Cdk1) | cellular level of Cdk4 (Cdk4) | cellular level of Cdk2 (Cdk2) | selectivity (Western blot) (p27/Cdk2 complex; FIG. 7) | association of p27 with Cdk2 (Western blot) (p27/Cdk2 complex; treated cancer lines) | cell invasiveness in vitro [1] | effect on tumor volume (PC-3 tumor cells)
1 | N#Cc1c(N)sc(=S)c2c1CCCC2 [Compound 4, 3-amino-1-sulfanylidene-5,6,7,8-tetrahydroisothiochromene-4-carbonitrile] | significantly inhibited proliferation | significantly inhibited proliferation | increase p27 binding to Cdk2 | Decrease the Cellular Levels | Decrease the Cellular Levels | Decrease the Cellular Levels |  |  |  | 
2 | CC(C)(C)c1ccc(N)c([N+](=O)[O-])c1 [Compound 3, 4-tert-Butyl-2-nitroaniline] | significantly inhibited proliferation | significantly inhibited proliferation | increase p27 binding to Cdk2 | Decrease the Cellular Levels | Decrease the Cellular Levels | Decrease the Cellular Levels | selective for a family of related Cdk and Cyclin kinases | increased association of p27 with Cdk2 | significantly inhibits cell invasiveness | significant effect on shrinking the tumor volume
